Data reported in PubChem BioAssay AID652054 (National Center for Advancing Translational Sciences (NCATS), 2013).
Out of some 360,000 compounds screened, about 9,100 (2.5%) were called active. This list was built around the results that the source calls inconclusive (neither active nor inactive); the mix of calls is not that of the screen. Cut-off read from the data, not from the text of the source: active = max response below about -50%; inconclusive = no clear call, values can overlap the other calls; inactive = above that.

Protein sequences, listed by entry. Tags and fused reporters are not part of them.
UniProt P35462, whole entry, looked up: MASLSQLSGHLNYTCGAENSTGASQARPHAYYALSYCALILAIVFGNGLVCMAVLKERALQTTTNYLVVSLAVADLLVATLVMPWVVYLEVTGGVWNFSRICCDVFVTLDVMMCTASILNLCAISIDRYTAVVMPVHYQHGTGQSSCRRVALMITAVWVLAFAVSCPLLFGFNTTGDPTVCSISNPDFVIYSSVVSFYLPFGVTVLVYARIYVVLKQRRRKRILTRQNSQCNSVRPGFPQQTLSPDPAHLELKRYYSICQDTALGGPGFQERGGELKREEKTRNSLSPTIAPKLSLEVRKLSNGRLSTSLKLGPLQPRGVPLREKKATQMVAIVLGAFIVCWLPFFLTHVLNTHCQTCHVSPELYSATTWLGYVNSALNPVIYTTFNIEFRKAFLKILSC

What follows are compounds tested against D(3) dopamine receptor (Homo sapiens) (UniProt P35462) (assay: qHTS of D3 Dopamine Receptor Antagonist: qHTS). Conditions: D3R cells, DiscoveRx beta-arrestin luminescence, antagonist mode; hits give low values.
In short: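 Cells expressing the human receptor were seeded at 1500 cells/well, incubated overnight at 37 degrees C in 5% CO2, then exposed to library compounds with dopamine controls for 90 minutes at 37 degrees C before luminescent detection.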
% is set by controls: 0 for no effect and ±100 for the full control effect.

| SMILES | max response, negative = inhibition |
| --- | --- |
| Cc1cc(=O)oc2cc(OC(C)C(=O)N3CCOCC3)ccc12 (stereo not drawn) | inconclusive: -41% |
| O=C1OC(c2ccccc2)/C(=C(/O)c2ccc(Cl)cc2)C1=O (stereo not drawn) | active: -61.9% |
| NC(=O)c1ccc(N2CCN(c3ccccc3O)CC2)c([N+](=O)[O-])c1 | inactive: 7.54% |
| N#CC(NC(=O)OCc1ccccc1)c1ccccc1 (stereo not drawn) | active: -54.3% |
| CCOC(=O)c1nn(-c2cccc(Cl)c2)c2nc(CC(C)C)c(C#N)c(=O)n12 | inactive: 23.3% |
| O=C(OCCN1C(=O)c2ccccc2C1=O)c1cc(S(=O)(=O)N2CCOCC2)ccc1Cl | inactive: 0% |
| Cn1c(=O)c2c(nc(Oc3ccc(-c4ccccc4)cc3)n2C)n(C)c1=O | inconclusive: -41.9% |
| CCCS(=O)(=O)c1nc(S(=O)(=O)c2ccc(C)cc2)c(N2CCC(C(N)=O)CC2)s1 | inactive: -17.7% |
| COc1cc(/C=N/NC(=O)/C(=C\c2ccc([N+](=O)[O-])cc2)NC(=O)c2ccccc2)cc(OC)c1O | inconclusive: -40.4% |
| Cc1ccc(-n2c(SCC(=O)NCC3CCCO3)nc3ccccc3c2=O)cc1 (stereo not drawn) | inconclusive: -34.1% |
| CC(=O)Nc1ccc(S(=O)(=O)Oc2ccc(/C=N/NC(=O)c3ccc(Cl)cc3)cc2)cc1 | inconclusive: -32.5% |
| COc1cc(CNC(=O)c2cc(-c3cc(Cl)ccc3OC)n[nH]2)cc(OC)c1 | inconclusive: -39.2% |
| CCOC(=O)C1(C)CCN1C(=O)c1cccc(C#N)c1 (stereo not drawn) | inconclusive: -44% |
| COC(=O)[C@]12CCCCC=C1N(Cc1ccc3c(c1)OCO3)C(=O)[C@H](CC(=O)N1CCOCC1)C2 | inactive: 6.26% |
| CS(=O)(=O)Nc1ccccc1NS(C)(=O)=O | inactive: -20.9% |
| O=P(c1ccccc1)(c1ccccc1)c1ccccc1C(Br)Br | active: -67% |
| Cc1cc(C)c2oc(-c3cccc(NC(=O)c4ccc(F)cc4)c3)nc2c1 | inactive: 0% |
| COc1cnc(-c2ccccn2)nc1N(C)c1ccccc1 | active: -68.2% |
| CCCCCCCCCCCCN1[C@@H](CC(=O)O)c2cc(F)ccc2S1(=O)=O | inactive: 1.27% |
| Cc1cccc(CN2CCN(C3CN(Cc4cn(Cc5cccc(C(F)(F)F)c5)nn4)S(=O)(=O)C3)CC2)c1 (stereo not drawn) | inconclusive: -46.5% |
| CCN1CCCC1CNS(=O)(=O)c1c(C)cc(C)cc1C (stereo not drawn) | active: -99.6% |
| O=[N+]([O-])c1cccc(/C=N/N2CCN(Cc3ccc(Cl)cc3)CC2)c1 | inconclusive: -34.9% |

Look-ups from the entries so far.
Value of CC(=O)Nc1ccc(S(=O)(=O)Oc2ccc(/C=N/NC(=O)c3ccc(Cl)cc3)cc2)cc1 under max response, negative = inhibition: inconclusive: -32.5%
Value of NC(=O)c1ccc(N2CCN(c3ccccc3O)CC2)c([N+](=O)[O-])c1 under max response, negative = inhibition: inactive: 7.54%
Value of Cc1ccc(-n2c(SCC(=O)NCC3CCCO3)nc3ccccc3c2=O)cc1 (stereo not drawn) under max response, negative = inhibition: inconclusive: -34.1%

Next part.

| SMILES | max response, negative = inhibition |
| --- | --- |
| COc1ccc(C2C(C(=O)c3ccco3)=C(O)C(=O)N2CC2CCCO2)c(OC)c1 (stereo not drawn) | inconclusive: -35.6% |
| CCN(CC)CCN(C(=O)c1ccccc1OC)c1nc2ccc(F)cc2s1 | inconclusive: -36.6% |
| Cc1ccc([C@@H]2CC(=O)[C@@H]3CN(S(=O)(=O)c4ccc(C)cc4)[C@H](c4ccccc4)C[C@@H]3N2S(=O)(=O)c2ccc(Cl)cc2)cc1 | inconclusive: -30.2% |
| Cc1c(C(=O)O)sc(S(=O)(=O)N2CCN(C(=O)Cc3ccccc3Cl)CC2)c1C(=O)O | inconclusive: -38.3% |
| CC(=O)Nc1ccc(NC(=O)C2(C)Cc3c(-c4cccc(C(F)(F)F)c4)ccnc3O2)cc1 (stereo not drawn) | inconclusive: -33.1% |
| Cc1nn(CC(=O)Nc2ccc3nc4n(c(=O)c3c2)CCCC4)c(C)c1[N+](=O)[O-] | inactive: 37.5% |
| O=C(CCNC(=O)c1ccccc1)Nc1ccc(Cl)c(S(=O)(=O)N2CCCCC2)c1 | inconclusive: -36.1% |
| COc1ccccc1-c1noc(CCC(=O)N2CCN(c3cc(C)ccc3C)CC2)n1 | inactive: 63.8% |
| CCc1cc2c(=O)c(-c3cnn(-c4ccccc4)c3)coc2c(CN2CCOCC2)c1O | inactive: 5.03% |
| COc1ccc(C(=O)N2CCCC(c3ccccc3)C2)cc1 (stereo not drawn) | inconclusive: -39.9% |
| CC(C)(C)c1ccc(Oc2ccc(NC(=O)c3cccs3)cn2)cc1 | inactive: 20.6% |
| Cc1ccc(NS(=O)(=O)c2ccc(Br)s2)nc1 | inactive: 13.4% |
| CCCNC(=O)Nc1ccc2c(c1)N(C)C(=O)c1ccccc1S2 | inconclusive: -46.8% |
| Cc1cc(Nc2cnc3ccccc3n2)n(-c2ccccc2)n1 | inactive: -18.8% |
| COC(=O)C1=C(C)NC(C)=C(C(=O)OC)C1c1cc2ccc(C)cc2[nH]c1=O | inconclusive: -35.2% |
| COc1cc(CN2C(=O)C(CCc3ccccc3)ON=C2c2cnccn2)cc(OC)c1 (stereo not drawn) | inactive: 19.8% |
| CC(=O)N1CC[n+]2c(-c3ccc(Cl)cc3)csc21 | inconclusive: -32% |
| O=C(NCCCn1ccnc1)c1ccc(-c2ccccc2)cc1 | inactive: 21.5% |
| O=C(CCN1CCN(Cc2ccccc2)CC1)Nc1cccc(Cl)c1 | active: -58.8% |
| NC(=Nc1ccccc1)Nc1ccccc1 | inactive: 27.1% |
| Cc1ccc(NC(=O)CSc2nn(-c3ccccc3)c(=S)s2)cc1S(=O)(=O)N(C)C | active: -62.8% |
